According to the supplement of paper PMC10849652:
This is one part of the list.

Sequences of proteins named here, by UniProt entry; tags and fusion partners are left off. A change or cut given only in a name is not applied to a line headed by its entry.
UniProt P61769, whole entry, looked up: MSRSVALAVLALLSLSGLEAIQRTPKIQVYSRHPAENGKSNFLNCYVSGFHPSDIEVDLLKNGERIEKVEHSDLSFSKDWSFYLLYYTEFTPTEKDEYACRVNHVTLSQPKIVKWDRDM
UniProt Q6ZNE5, whole entry, looked up: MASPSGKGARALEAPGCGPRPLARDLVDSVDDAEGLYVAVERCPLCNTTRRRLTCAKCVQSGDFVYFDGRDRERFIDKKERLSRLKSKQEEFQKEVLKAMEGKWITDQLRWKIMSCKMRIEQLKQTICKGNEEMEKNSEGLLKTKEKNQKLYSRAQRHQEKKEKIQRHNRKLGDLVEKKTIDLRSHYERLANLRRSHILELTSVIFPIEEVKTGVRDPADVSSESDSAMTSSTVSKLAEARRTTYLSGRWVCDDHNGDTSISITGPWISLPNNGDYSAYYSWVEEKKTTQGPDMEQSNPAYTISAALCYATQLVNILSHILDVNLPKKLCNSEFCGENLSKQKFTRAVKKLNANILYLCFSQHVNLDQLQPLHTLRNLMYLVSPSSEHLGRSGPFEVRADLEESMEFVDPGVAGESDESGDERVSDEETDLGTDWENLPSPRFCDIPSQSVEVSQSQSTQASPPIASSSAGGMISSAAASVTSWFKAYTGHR
UniProt H3BUF6: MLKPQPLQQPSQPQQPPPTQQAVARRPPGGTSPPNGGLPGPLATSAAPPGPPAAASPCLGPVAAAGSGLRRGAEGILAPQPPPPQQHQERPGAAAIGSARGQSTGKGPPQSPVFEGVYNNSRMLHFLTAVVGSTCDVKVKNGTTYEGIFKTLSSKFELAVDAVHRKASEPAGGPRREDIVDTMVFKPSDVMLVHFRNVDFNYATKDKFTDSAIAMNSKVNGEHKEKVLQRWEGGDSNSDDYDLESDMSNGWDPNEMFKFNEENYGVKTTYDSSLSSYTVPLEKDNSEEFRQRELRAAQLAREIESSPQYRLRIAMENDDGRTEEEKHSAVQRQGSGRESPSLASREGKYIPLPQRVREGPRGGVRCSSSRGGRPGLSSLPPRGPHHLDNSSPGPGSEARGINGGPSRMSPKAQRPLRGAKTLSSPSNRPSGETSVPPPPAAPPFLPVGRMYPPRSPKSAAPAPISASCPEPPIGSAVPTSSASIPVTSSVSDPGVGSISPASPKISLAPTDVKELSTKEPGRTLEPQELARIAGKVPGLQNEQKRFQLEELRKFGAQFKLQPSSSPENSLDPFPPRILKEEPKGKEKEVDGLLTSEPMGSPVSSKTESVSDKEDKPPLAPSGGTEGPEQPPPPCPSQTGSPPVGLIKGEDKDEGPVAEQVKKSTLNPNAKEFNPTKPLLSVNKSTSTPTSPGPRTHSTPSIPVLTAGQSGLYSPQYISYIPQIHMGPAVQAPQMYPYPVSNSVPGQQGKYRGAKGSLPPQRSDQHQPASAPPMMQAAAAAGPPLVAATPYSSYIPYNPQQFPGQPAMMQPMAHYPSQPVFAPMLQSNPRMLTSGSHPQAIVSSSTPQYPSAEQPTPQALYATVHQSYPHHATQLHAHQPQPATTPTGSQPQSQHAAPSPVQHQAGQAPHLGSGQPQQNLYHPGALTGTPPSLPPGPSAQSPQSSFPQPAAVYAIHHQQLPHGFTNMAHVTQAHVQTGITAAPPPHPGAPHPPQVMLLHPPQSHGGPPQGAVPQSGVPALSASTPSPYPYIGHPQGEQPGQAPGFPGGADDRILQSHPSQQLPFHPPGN
UniProt Q96NS5: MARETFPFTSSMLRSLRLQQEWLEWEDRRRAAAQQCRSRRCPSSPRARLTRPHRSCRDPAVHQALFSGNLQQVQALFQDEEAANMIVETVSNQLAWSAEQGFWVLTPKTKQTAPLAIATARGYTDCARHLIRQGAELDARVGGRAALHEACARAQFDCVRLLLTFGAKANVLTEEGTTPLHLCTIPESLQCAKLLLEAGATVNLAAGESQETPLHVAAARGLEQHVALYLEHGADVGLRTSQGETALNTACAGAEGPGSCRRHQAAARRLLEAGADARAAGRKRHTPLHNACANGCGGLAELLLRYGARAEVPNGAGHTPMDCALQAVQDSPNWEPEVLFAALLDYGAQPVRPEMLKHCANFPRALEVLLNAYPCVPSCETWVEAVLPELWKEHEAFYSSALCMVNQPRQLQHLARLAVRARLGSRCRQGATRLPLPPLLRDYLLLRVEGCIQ
UniProt P18847: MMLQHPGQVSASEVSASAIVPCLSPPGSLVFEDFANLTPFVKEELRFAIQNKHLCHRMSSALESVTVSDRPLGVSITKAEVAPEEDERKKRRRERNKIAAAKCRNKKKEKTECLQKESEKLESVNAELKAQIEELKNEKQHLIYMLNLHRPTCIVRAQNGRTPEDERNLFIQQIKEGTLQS
UniProt Q96L58: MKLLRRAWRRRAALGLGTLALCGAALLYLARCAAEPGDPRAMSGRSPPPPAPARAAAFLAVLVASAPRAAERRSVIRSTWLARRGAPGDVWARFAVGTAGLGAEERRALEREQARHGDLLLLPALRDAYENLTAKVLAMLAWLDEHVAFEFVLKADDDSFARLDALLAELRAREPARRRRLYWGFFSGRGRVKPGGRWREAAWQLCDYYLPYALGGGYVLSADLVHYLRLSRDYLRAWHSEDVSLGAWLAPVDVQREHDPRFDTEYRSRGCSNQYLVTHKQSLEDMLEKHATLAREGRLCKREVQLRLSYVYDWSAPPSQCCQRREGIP
UniProt Q14CW9: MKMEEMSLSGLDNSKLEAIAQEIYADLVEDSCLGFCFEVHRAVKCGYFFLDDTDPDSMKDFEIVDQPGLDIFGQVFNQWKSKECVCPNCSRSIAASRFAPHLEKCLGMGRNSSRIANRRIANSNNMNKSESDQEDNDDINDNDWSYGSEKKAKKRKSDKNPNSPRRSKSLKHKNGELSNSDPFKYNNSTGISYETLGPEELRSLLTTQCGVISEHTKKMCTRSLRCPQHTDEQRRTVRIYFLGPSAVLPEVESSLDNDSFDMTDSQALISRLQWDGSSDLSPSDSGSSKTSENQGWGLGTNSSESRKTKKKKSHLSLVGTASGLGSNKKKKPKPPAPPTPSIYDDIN
UniProt P98194: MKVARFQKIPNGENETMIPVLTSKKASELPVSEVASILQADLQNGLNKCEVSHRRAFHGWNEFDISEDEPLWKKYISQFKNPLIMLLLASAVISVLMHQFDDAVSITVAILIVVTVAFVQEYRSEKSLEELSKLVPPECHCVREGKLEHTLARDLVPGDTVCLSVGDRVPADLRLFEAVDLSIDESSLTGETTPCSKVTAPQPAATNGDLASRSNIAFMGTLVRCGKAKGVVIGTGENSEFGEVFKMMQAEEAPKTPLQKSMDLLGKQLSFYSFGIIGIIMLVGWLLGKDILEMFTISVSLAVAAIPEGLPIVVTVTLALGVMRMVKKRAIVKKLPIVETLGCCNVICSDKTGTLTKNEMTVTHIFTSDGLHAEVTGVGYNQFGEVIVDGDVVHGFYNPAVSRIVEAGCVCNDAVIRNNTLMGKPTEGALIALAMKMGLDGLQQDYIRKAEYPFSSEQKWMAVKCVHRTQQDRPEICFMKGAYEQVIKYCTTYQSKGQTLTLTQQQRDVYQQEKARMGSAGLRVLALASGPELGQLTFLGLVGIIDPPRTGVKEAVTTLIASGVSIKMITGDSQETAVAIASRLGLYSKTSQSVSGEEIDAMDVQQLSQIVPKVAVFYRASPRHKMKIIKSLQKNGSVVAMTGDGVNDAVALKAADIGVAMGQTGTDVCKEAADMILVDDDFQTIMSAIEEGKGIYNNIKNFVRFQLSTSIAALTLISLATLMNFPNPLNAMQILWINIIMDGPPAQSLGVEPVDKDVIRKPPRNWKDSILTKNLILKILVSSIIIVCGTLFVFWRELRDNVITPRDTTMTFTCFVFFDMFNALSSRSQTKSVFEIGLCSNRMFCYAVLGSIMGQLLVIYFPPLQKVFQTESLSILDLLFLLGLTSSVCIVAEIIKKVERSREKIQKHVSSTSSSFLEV
UniProt Q96QE3: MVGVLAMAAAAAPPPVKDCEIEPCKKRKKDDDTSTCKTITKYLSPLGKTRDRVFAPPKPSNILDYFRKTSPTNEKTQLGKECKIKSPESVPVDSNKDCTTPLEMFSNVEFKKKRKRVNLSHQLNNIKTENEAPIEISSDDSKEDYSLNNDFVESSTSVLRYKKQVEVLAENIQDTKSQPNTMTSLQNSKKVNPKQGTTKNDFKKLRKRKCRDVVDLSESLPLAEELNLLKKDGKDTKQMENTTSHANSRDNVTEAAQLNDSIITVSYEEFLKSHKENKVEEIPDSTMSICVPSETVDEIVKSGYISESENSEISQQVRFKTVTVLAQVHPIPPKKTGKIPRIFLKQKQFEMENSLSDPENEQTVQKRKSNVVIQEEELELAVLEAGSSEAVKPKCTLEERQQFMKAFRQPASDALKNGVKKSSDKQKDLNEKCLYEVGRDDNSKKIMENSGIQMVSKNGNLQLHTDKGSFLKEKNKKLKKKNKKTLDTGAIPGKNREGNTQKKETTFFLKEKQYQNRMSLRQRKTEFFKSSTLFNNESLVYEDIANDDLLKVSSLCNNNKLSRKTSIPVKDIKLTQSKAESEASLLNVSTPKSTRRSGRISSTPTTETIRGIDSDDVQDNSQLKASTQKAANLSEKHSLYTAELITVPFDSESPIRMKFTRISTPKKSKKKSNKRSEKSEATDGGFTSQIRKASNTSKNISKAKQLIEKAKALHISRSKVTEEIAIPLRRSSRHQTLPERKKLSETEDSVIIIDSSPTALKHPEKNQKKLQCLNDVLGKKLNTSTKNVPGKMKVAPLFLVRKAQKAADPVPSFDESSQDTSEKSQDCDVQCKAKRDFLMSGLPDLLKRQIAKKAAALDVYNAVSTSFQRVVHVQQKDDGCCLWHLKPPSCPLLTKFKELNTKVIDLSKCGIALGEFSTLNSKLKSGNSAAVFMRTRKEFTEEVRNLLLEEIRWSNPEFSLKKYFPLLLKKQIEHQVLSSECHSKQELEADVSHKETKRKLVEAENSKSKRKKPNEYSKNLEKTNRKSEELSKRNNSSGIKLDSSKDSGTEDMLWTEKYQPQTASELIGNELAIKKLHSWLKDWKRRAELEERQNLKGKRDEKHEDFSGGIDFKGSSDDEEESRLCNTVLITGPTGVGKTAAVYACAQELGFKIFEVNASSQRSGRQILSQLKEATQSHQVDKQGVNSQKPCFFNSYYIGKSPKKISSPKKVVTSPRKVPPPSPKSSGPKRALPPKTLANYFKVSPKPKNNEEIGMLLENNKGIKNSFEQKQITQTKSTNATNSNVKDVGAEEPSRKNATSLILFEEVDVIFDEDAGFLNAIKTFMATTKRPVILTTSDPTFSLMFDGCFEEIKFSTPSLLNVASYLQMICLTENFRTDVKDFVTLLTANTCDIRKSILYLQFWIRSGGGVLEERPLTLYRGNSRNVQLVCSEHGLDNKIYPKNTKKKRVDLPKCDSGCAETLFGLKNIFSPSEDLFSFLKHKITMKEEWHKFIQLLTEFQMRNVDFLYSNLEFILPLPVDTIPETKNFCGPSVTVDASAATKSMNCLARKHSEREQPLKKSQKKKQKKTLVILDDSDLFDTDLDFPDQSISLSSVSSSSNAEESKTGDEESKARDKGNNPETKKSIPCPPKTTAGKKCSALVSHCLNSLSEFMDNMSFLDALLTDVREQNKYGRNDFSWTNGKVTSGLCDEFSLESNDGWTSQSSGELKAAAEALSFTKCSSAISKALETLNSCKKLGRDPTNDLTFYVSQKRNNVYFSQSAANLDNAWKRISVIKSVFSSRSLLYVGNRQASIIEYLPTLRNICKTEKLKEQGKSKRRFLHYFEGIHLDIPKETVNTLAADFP
UniProt B2RBV5: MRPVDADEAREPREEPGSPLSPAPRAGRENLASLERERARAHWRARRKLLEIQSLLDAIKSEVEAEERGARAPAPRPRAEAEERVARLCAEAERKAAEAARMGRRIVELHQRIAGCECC
UniProt Q99941: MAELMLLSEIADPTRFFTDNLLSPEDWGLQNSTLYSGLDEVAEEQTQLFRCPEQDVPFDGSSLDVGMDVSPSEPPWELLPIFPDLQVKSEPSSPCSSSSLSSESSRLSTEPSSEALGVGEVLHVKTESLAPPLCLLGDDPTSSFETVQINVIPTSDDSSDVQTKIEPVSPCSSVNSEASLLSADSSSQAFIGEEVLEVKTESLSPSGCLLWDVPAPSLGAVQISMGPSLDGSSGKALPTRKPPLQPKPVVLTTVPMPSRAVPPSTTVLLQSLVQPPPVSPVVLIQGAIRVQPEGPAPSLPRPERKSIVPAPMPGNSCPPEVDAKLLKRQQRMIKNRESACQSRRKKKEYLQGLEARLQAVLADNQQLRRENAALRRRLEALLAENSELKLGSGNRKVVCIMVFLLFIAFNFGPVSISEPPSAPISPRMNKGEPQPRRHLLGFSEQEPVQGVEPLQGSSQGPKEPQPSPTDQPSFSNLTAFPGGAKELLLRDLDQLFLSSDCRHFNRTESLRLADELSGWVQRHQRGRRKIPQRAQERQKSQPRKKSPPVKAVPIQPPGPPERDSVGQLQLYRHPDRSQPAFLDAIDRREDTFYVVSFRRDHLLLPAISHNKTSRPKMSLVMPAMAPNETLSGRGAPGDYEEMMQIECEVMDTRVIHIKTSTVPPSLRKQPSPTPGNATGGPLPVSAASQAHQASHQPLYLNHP

Experiments:
Assay in all cases: log2 fold change, soluble protein after heating vs DMSO (PISA); higher = thermal stabilisation; K562 lysate, 10 uM; active = over 0.2 and 3.5 SD of the protein, either way, in both replicates (recomputed)
vemurafenib = compound: CCCS(=O)(=O)Nc1ccc(F)c(C(=O)c2c[nH]c3ncc(-c4ccc(Cl)cc4)cc23)c1F [vemurafenib]
How it was run: (§1)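 Following dounce homogenisation of K562 pellets in PBS pH 7.4 with 1 mM MgCl2, crude extract at 1 mg/mL protein was incubated for 30 min with 10 μM compound. Aliquots were then heated for 3 min over 48°C-58°C and pooled, NP-40 was added to 0.5% at 4°C, and soluble protein was recovered as the supernatant at 21,000xg for 90 min. Channel-sum-equalised TMTpro 16plex LC-MS/MS quantified this protein. Each value, from duplicates, is a log-two fold change in thermal stability relative to solvent controls.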

barasertib = compound: CCN(CCCOc1ccc2c(Nc3cc(CC(=O)Nc4cccc(F)c4)[nH]n3)ncnc2c1)CCOP(=O)(O)O [barasertib]
How it was run: as §1

[1] = compound: CC[C@@H]1C(=O)N(C)c2cnc(Nc3ccc(C(=O)NC4CCN(C)CC4)cc3OC)nc2N1C1CCCC1
How it was run: as §1

[2] = compound: CCn1c(C(=O)N(C2CC2)C2CC2)cc2c3c(ncn3C)c(Nc3cc(C)n(C)n3)nc21
How it was run: as §1

[3] = compound: CCn1cc(-c2ccnc3[nH]c(-c4cccc(CN(C)C)c4)cc23)c(-c2ccc(NC(=O)N(C)C)cc2)n1
How it was run: as §1

[4] = compound: CN1CCC(CNc2ccc3ncc(-c4cccc(OC(F)(F)F)c4)n3n2)CC1
How it was run: as §1

sotrastaurin = compound: CN1CCN(c2nc(C3=C(c4c[nH]c5ccccc45)C(=O)NC3=O)c3ccccc3n2)CC1 [sotrastaurin]
How it was run: as §1

[5] = compound: CCCS(=O)(=O)Nc1ccc(F)c(C(=O)c2c[nH]c3ncc(Cl)cc23)c1F
How it was run: as §1

volasertib = compound: CC[C@@H]1C(=O)N(C)c2cnc(Nc3ccc(C(=O)N[C@H]4CC[C@H](N5CCN(CC6CC6)CC5)CC4)cc3OC)nc2N1C(C)C [volasertib]
How it was run: as §1

saracatinib = compound: CN1CCN(CCOc2cc(OC3CCOCC3)c3c(Nc4c(Cl)ccc5c4OCO5)ncnc3c2)CC1 [saracatinib]
How it was run: as §1

Measured: log2 fold change

ATXN1L (UniProt P0C7T5)
inactive: vemurafenib -0.008 | barasertib -0.096 | [1] 0.089 | [2] -0.078 | [3] -0.001 | [4] -0.047 | sotrastaurin 0.002

ATL2 (UniProt Q8NHH9)
inactive: vemurafenib -0.022 | [5] 0.021 | barasertib -0.014 | [1] -0.098 | volasertib -0.047 | [2] 0.008 | [3] -0.228 | [4] 0.031 | saracatinib 0.028 | sotrastaurin -0.007

ATP1A3 isoform 3 (UniProt P13637)
inactive: vemurafenib 0.034 | [5] 0.006 | barasertib -0.003 | [1] 0.039 | volasertib 0.01 | [2] -0.034 | [3] -0.042 | [4] 0.013 | saracatinib -0.008 | sotrastaurin 0.008

B4GALNT1 (UniProt Q00973)
inactive: vemurafenib -0.036 | [5] 0.004 | [1] 0.057 | volasertib 0.058 | [2] -0.087 | [3] 0.078 | [4] -0.058 | saracatinib -0.05 | sotrastaurin 0.027

ATXN2L (UniProt Q8WWM7)
inactive: vemurafenib -0.075 | barasertib -0.083 | [1] -0.019 | [2] -0.017 | [3] -0.017 | [4] 0 | saracatinib -0.136 | sotrastaurin -0.019

ATP1B2 (UniProt P14415)
inactive: vemurafenib -0.095 | [5] 0.035 | barasertib -0.13 | volasertib -0.037 | [2] -0.064 | saracatinib 0.073

ATP6V1D (UniProt Q9Y5K8)
inactive: vemurafenib -0.026 | [5] 0.009 | barasertib 0.027 | [1] 0.012 | volasertib 0.028 | [2] -0.016 | [3] 0.092 | [4] -0.02 | saracatinib 0.004 | sotrastaurin 0

B2M (UniProt P61769)
inactive: vemurafenib 0.053 | [5] -0.037 | barasertib 0.126 | [1] 0 | volasertib 0.025 | [2] -0.033 | [3] -0.029 | [4] -0.082 | saracatinib 0.054 | sotrastaurin -0.051

ATG14 (UniProt Q6ZNE5)
inactive: vemurafenib 0.102 | barasertib -0.145 | [1] 0.053 | saracatinib 0.009

ATRX (UniProt P46100)
inactive: vemurafenib -0.135 | barasertib 0.149 | [1] -0.075 | [2] 0.194 | [3] 0.001 | [4] -0.162 | saracatinib 0.058 | sotrastaurin 0.176

ATXN2L (UniProt H3BUF6)
inactive: vemurafenib 0.07 | [5] 0.062 | [1] 0.124 | volasertib 0.06 | [3] 0 | [4] 0.036 | saracatinib -0.042 | sotrastaurin 0.074

ATPAF1 (UniProt Q5TC12)
inactive: vemurafenib -0.034 | [5] 0.009 | barasertib -0.018 | [1] 0.036 | volasertib -0.016 | [2] -0.003 | [3] 0.113 | [4] -0.083 | saracatinib 0.028 | sotrastaurin 0.001

ASXL3 (UniProt Q9C0F0)
inactive: [5] -0.079 | volasertib 0.074 | [2] -0.224 | sotrastaurin -0.011

Looked up one by one from the entries so far, 2 records:
ATXN2L (UniProt H3BUF6)
inactive: vemurafenib 0.07 | [5] 0.062 | [1] 0.124 | volasertib 0.06 | [3] 0 | [4] 0.036 | saracatinib -0.042 | sotrastaurin 0.074

B2M (UniProt P61769)
inactive: vemurafenib 0.053 | [5] -0.037 | barasertib 0.126 | [1] 0 | volasertib 0.025 | [2] -0.033 | [3] -0.029 | [4] -0.082 | saracatinib 0.054 | sotrastaurin -0.051

More records.

ASNSD1 (UniProt Q9NWL6)
inactive: barasertib -0.051 | [1] -0.048 | [3] -0.009 | [4] 0.126

ATP5F1A (UniProt K7ENJ4)
inactive: [5] 0.02 | volasertib 0.097 | [2] -0.001 | [3] -0.081 | [4] 0.117

ASB16 (UniProt Q96NS5)
inactive: [5] 0.039 | volasertib 0.069 | saracatinib 0.139 | sotrastaurin 0.009

ATF6 (UniProt P18850)
inactive: [1] -0.067 | [2] 0.05

B3GALNT2 (UniProt Q8NCR0)
inactive: [5] -0.137 | volasertib 0.102 | [2] 0.043 | saracatinib -0.076 | sotrastaurin 0.073

ATPSCKMT (UniProt Q6P4H8)
inactive: barasertib -0.019 | [1] 0.171 | [2] 0.077 | saracatinib 0.053 | sotrastaurin -0.007

ATAD2B (UniProt Q9ULI0)
inactive: barasertib 0.093 | [2] 0.119

ASTE1 (UniProt Q2TB18)
inactive: [5] -0.148 | volasertib -0.1 | sotrastaurin 0.191

ATP6V0A1 (UniProt Q93050)
inactive: [5] 0.067 | barasertib 0.128 | volasertib 0.033 | [2] 0.075 | [3] -0.035 | [4] 0.149 | saracatinib 0.076 | sotrastaurin -0.109

ATF3 (UniProt P18847)
inactive: vemurafenib -0.032 | [1] 0.013 | [2] 0.004 | [3] -0.476 | [4] 0.169 | saracatinib -0.036 | sotrastaurin -0.02

ATE1 (UniProt O95260)
inactive: [5] 0.061 | barasertib -0.051 | volasertib 0.002 | [3] 0.082 | [4] 0.003 | sotrastaurin 0.021

ATP1B4 (UniProt Q9UN42)
inactive: [5] 0.023 | volasertib -0.021 | [2] 0.089 | saracatinib 0.102 | sotrastaurin 0.002

ASXL1 (UniProt Q8IXJ9)
inactive: [5] 0.064 | barasertib -0.006 | [1] -0.054 | volasertib 0.047 | [2] -0.012 | [3] 0.126 | [4] -0.138 | saracatinib 0 | sotrastaurin 0.031

B3GALT6 (UniProt Q96L58)
inactive: barasertib 0.002 | [2] 0.115 | saracatinib -0.172 | sotrastaurin 0.067

ATXN7L3 isoform 2 (UniProt Q14CW9)
inactive: [5] -0.074 | barasertib 0.045 | volasertib -0.084 | [2] 0.031 | [3] -0.147 | [4] 0.164 | saracatinib 0.001 | sotrastaurin -0.031

ATXN2 (UniProt F8WB06)
inactive: saracatinib -0.088

ATP5F1B (UniProt H0YI37)
inactive: [5] 0.07 | barasertib -0.324 | volasertib -0.289 | [2] -0.514 | saracatinib 0.138 | sotrastaurin -0.13

ASXL2 (UniProt Q76L83)
inactive: [5] -0.023 | barasertib 0.001 | volasertib 0 | [2] 0.066 | [3] -0.01 | [4] -0.084 | saracatinib 0.031 | sotrastaurin -0.256

ATP5F1B (UniProt F8W079)
inactive: [5] -0.21 | barasertib 0.134 | [1] -0.214 | volasertib 0.045

ASB9 (UniProt Q96DX5)
inactive: [5] -0.151 | volasertib 0.055

B3GNTL1 (UniProt Q67FW5)
inactive: [5] -0.014 | barasertib 0.113 | [1] 0.023 | volasertib -0.082 | [2] 0.001 | [3] -0.087 | [4] -0.033 | sotrastaurin 0.043

ATG2A (UniProt Q2TAZ0)
inactive: [5] -0.018 | barasertib 0.182 | volasertib -0.069 | [2] -0.009

ATF1 (UniProt P18846)
inactive: [5] 0.015 | barasertib -0.05 | [1] 0.084 | volasertib 0.004 | [2] 0.021 | [3] -0.038 | [4] -0.006 | saracatinib -0.075 | sotrastaurin -0.002

ATP2C1 isoform 3 (UniProt P98194)
inactive: [2] -0.06 | [3] 0.054 | [4] 0.035

ASS1 (UniProt P00966)
inactive: [5] 0.093 | barasertib 0.053 | [1] 0.027 | volasertib -0.065 | [2] -0.006 | [3] -0.02 | [4] -0.025 | saracatinib -0.028 | sotrastaurin 0.033

ATP5F1C isoform 2 (UniProt P36542)
inactive: barasertib 0.073 | [2] -0.022 | sotrastaurin -0.325

ATAD5 (UniProt Q96QE3)
inactive: [1] -0.045

NA (UniProt B2RBV5)
inactive: [5] 0.054 | barasertib 0.191 | [1] 0.069 | volasertib -0.02 | sotrastaurin 0.281

ATP1B1 (UniProt P05026)
inactive: [5] 0.011 | barasertib -0.043 | volasertib 0.026 | [2] -0.004 | [3] 0.222 | [4] -0.021 | saracatinib -0.008 | sotrastaurin 0.005

ATP5F1B (UniProt F8W0P7)
inactive: vemurafenib -0.141 | saracatinib 0.107

ATF6B (UniProt Q99941)
inactive: sotrastaurin 0.004

ATP11C, A0A067XG54
inactive: [5] -0.066 | barasertib 0.054 | volasertib -0.259 | [2] -0.092 | [3] -0.157 | [4] 0.103 | saracatinib 0.147 | sotrastaurin 0.039

ATG4D (UniProt Q86TL0)
inactive: barasertib -0.074 | [1] 0.055 | [2] 0.116 | saracatinib -0.188 | sotrastaurin 0.058
